Results published in PubChem BioAssay AID493014 (National Center for Advancing Translational Sciences (NCATS), 2011).
Some of the results follow. These are further read-outs of the screen, such as a control signal, another cell line or another target. No call is given for them. The list favours compounds with an active or inconclusive main result. Words in brackets tell the shape of the fitted curve; partial curves, single points and poor fits give uncertain potencies.

Experiment: qHTS Assay to Find Inhibitors of Chronic Active B-Cell Receptor Signaling
Conditions: ABC-DLBCL IkBa-CBG/CBR reporter, luminescence ratio (green luciferase fused to IkBa over red control in TMD8 lymphoma cells), 4 h
Procedure, shortened: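 TMD8 ABC-DLBCL cells carrying doxycycline-inducible green luciferase fused to IkappaBalpha plus unfused red luciferase were exposed to compounds (up to 46 uM) for 4 hrs at 37C. Activity came from the overlap-corrected green/red luminescence ratio.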

[1] = measured here: CBR red luminescence, cell number
[2] = measured here: IkBa-CBG green luminescence

SMILES	AC50 [1]	AC50 [2]
O=C(NCCc1nc2ccccc2[nH]1)/C(=C/c1ccc2c(c1)OCO2)NC(=O)c1ccc(Cl)cc1Cl	16.4 µM [falling, single point]	–
O=c1c(NCCc2ccc(Cl)cc2)c(-c2ccccc2)c1=O	3.55 µM [rising, full curve]	–
CCOC(=O)C1=C(COC(=O)c2cccnc2SC)NC(=O)NC1C (stereo not drawn)	25.9 µM [rising, partial curve, poor fit]	–
COCCNC(=S)N(CCc1c(C)[nH]c2ccc(F)cc12)Cc1ccc(C)cc1	22.4 µM [falling, single point]	–
CCc1sc(C(=O)Nc2ncccc2O)cc1C	1.12 µM [rising, full curve, poor fit]	–
CN(C)c1ccc(NC(=O)c2cnsn2)cc1	8.91 µM [falling, partial curve]	–
O=C(Nc1c2c(nn1-c1ccc(F)cc1)CS(=O)(=O)C2)C12CC3CC(CC(C3)C1)C2	4.47 µM [rising, single point]	–
Cc1ccc(C2CC2C(=O)NNC(=S)Nc2cccc(C)c2)cc1 (stereo not drawn)	4.61 µM [falling, partial curve, poor fit]	–
O=C(Nc1nnc(C2=COCCO2)o1)c1cccc(Br)c1	35.5 µM [falling, single point]	–
O=C(Oc1c(Cl)cc(Cl)c2cccnc12)c1ccco1	2.91 µM [rising, full curve, poor fit]	4.11 µM [falling, full curve]
O=C(Nc1nc2ccccc2s1)c1ccc(N2CCCCC2)c([N+](=O)[O-])c1	–	2.91 µM [rising, full curve, poor fit]
COc1ccc([N+](=O)[O-])cc1C(=O)NCCOc1ccc(Cl)cc1	1.58 µM [rising, partial curve, poor fit]	–
O=C(CS(=O)CC(=O)Nc1ccc(Cl)cc1)NCC1OCCc2ccccc21 (stereo not drawn)	23.1 µM [falling, single point]	–
Fc1ccc(NC(=S)Nc2nccs2)cc1	20 µM [falling, single point]	–
CC(=O)c1cc(C#N)c(SCC(=O)OC(C)C)nc1C	23.1 µM [rising, single point]	–
O=C(Nc1ccccn1)c1c(O)c2cccc3c2n(c1=O)CCC3	35.5 µM [rising, partial curve, poor fit]	–
Cc1cc(C(=O)COC(=O)c2ccc(O)cc2)c(C)n1CC1CCCO1 (stereo not drawn)	35.5 µM [falling, single point]	–
C/C(=N\NC(=O)c1ccc(NS(=O)(=O)c2cccs2)cc1)c1ccc2c(c1)OCO2	11.2 µM [falling, partial curve, poor fit]	–
CO[C@H]1/C=C/O[C@@]2(C)Oc3c(C)c(O)c4c(O)c(c(C=NN5CCN(C)CC5)c(O)c4c3C2=O)NC(=O)/C(C)=C\C=C\[C@H](C)[C@H](O)[C@@H](C)[C@@H](O)[C@@H](C)[C@H](OC(C)=O)[C@@H]1C	25.9 µM [rising, single point]	–
NC(=O)c1ccccc1OCC(=O)c1ccc(Cl)cc1	1 µM [rising, full curve]	–
[O-][N+]1=c2ccc(Nc3ccccc3)cc2=NC12CCCCC2	0.891 µM [falling, full curve, poor fit]	–

3 entries out of the list, arranged by formula weight, descending:
SMILES	AC50 [1]	AC50 [2]
CO[C@H]1/C=C/O[C@@]2(C)Oc3c(C)c(O)c4c(O)c(c(C=NN5CCN(C)CC5)c(O)c4c3C2=O)NC(=O)/C(C)=C\C=C\[C@H](C)[C@H](O)[C@@H](C)[C@@H](O)[C@@H](C)[C@H](OC(C)=O)[C@@H]1C	25.9 µM [rising, single point]	–
CCOC(=O)C1=C(COC(=O)c2cccnc2SC)NC(=O)NC1C (stereo not drawn)	25.9 µM [rising, partial curve, poor fit]	–
CCc1sc(C(=O)Nc2ncccc2O)cc1C	1.12 µM [rising, full curve, poor fit]	–

Continuation.

SMILES	AC50 [1]	AC50 [2]
CCc1cc2c(=O)n(Cc3ccco3)c(SCC(=O)NCC3CCCO3)nc2s1 (stereo not drawn)	14.1 µM [falling, partial curve, poor fit]	–
Cc1ccc(F)cc1NC(=O)c1ccc(OCC2CCCO2)cc1 (stereo not drawn)	0.58 µM [falling, single point]	–
CN(C)c1ccc(C=Nc2ccc(N(C)C)cc2)cc1	1.64 µM [falling, full curve]	–
COC(=O)Cc1nnc(SCC(=O)Nc2ccccc2)c2ccccc12	3.98 µM [falling, partial curve]	–
Cc1onc(-c2c(Cl)cccc2Cl)c1C(=O)NC1CCCCC1	5.62 µM [rising, single point]	–
O=C1NC(Cc2ccccc2)c2nc3ccc(Cl)cc3c(=O)n2-c2cc(Cl)ccc21 (stereo not drawn)	2.91 µM [rising, partial curve, poor fit]	–
C=CCN(c1ccc(C(=O)N2CCCC2)cc1)S(C)(=O)=O	4.11 µM [rising, partial curve, poor fit]	–
Cc1ncoc1C(=O)N1CCCC(C(=O)Nc2cccc(-c3ccc(F)cc3)c2)C1 (stereo not drawn)	25.1 µM [falling, single point]	–
COc1cccc(CC(=O)Nc2nc(-c3ccc(F)c(F)c3)cs2)c1	10 µM [falling, partial curve]	–
O=C(CCCN1C(=O)c2ccccc2C1=O)NCCCn1ccnc1	10 µM [rising, partial curve, poor fit]	14.1 µM [rising, partial curve, poor fit]
O=C(Oc1cccc(/C=N/Nc2nc(Nc3ccccc3)nc(N3CCOCC3)n2)c1)c1ccco1	16.4 µM [falling, partial curve]	–
C/C(=N/NC(=O)CNc1ccc(C)cc1)c1ccc(Br)s1	9.2 µM [falling, partial curve, poor fit]	–
N#C/C(=C\c1coc2ccccc2c1=O)C(N)=S	6.31 µM [falling, single point]	–
Cc1cccnc1NC(=O)c1ccc(Cl)c(S(=O)(=O)N2CCCCCC2)c1	6.31 µM [falling, single point]	–
O=C(OCC(=O)c1c[nH]c2ccccc12)c1cc(S(=O)(=O)N2CCOCC2)ccc1F	23.1 µM [falling, single point]	–
O=C(O)c1ccc(/C=N/NC(=O)c2cc3ccccc3cc2O)cc1	3.66 µM [falling, full curve]	–
COc1ccc2cc(CO)n(C)c2c1	13 µM [rising, partial curve, poor fit]	–
CN(CC(=O)Nc1ccc(Cl)c(Cl)c1)C(=O)CNC(=O)C1CCCCC1	3.66 µM [falling, single point]	6.51 µM [rising, partial curve, poor fit]
CCOC(=O)c1nnn(-c2nonc2N)c1CN(CC)c1ccccc1	6.51 µM [falling, single point]	–
COc1ccccc1CCC(=O)N1CCC(n2nccc2NC(=O)CC(C)C)CC1	4.47 µM [rising, partial curve, poor fit]	–
CCOc1ccc(-c2nnc3ccc(SCC(=O)Nc4cc(C)on4)nn23)cc1	14.1 µM [rising, single point]	–

SMILES	AC50 [1]	AC50 [2]
CCN(C(=O)COC(=O)c1cc([N+](=O)[O-])ccc1N1CCCCC1)C1CCS(=O)(=O)C1 (stereo not drawn)	15.8 µM [rising, single point]	–
Cc1oc2c(CN3CCCC3)c(O)ccc2c(=O)c1-c1ccccc1	23.1 µM [falling, single point]	–
COc1ccc(C(=O)c2ccc(OC)c(N)c2)cc1N	23.1 µM [rising, single point]	13 µM [falling, partial curve, poor fit]
COc1ccc(CCNC(=O)c2cc(-c3ccco3)on2)cc1OC	7.08 µM [falling, partial curve, poor fit]	–
O=c1[nH]c2ccccc2nc1/C=C/c1ccc(F)cc1	7.94 µM [falling, partial curve, poor fit]	–
O=C(Nc1ccc(Cl)cc1Cl)c1cc(S(=O)(=O)N2CCCCCC2)ccc1F	35.5 µM [rising, single point]	–
Cc1ccc(NC(=O)OCc2cccs2)cc1	14.1 µM [falling, single point]	–
O=[N+]([O-])c1ccccc1S(=O)(=O)NCc1ccc(F)cc1	6.31 µM [rising, single point]	–
N#Cc1ccccc1NC(=O)CSc1nccn1CCc1ccccc1	1.3 µM [falling, full curve]	–
CCCCNc1ccc(C(=O)OCCN(C)C)cc1	22.4 µM [rising, single point]	–
Cc1cc(N2CCN(C(=O)c3ccco3)CC2)nc(-c2ccccc2)n1	35.5 µM [falling, single point]	–
C#CCOc1nc2c(c(=O)n(C)c(=O)n2C)n1Cc1ccccc1	7.08 µM [falling, partial curve, poor fit]	–
COc1cccc(OCc2ccc(Cl)cc2)c1C#N	0.398 µM [rising, partial curve, poor fit]	–
CCc1cccc(CC)c1NC(=O)COC(=O)c1cccc(S(=O)(=O)N2CCc3ccccc3C2)c1	2.91 µM [rising, full curve, poor fit]	–
Cc1c(CCO)c(=O)n(-c2ccccc2)n1S(=O)(=O)c1c(Cl)cc(Cl)cc1Cl	22.4 µM [falling, single point]	–
COc1cc(/C=N/N=C2/SCC(=O)N2c2ccc(O)cc2)ccc1O	35.5 µM [falling, single point]	–
CC(=O)NC1Sc2ccccc2N=C1c1ccccc1 (stereo not drawn)	3.66 µM [rising, single point]	–
CCOC(=O)C(C)N1C(=O)S/C(=C/c2cc(C)n(-c3ccccn3)c2C)C1=O (stereo not drawn)	7.31 µM [rising, partial curve, poor fit]	14.6 µM [falling, partial curve]
CC(C)Nc1nnc(SCC(=O)N2CCN(C(=O)c3ccco3)CC2)s1	36.6 µM [rising, single point]	–
COC(=O)c1sccc1NC(=O)Cc1ccc(Br)cc1	9.2 µM [falling, partial curve]	23.1 µM [rising, single point]
